Measurements from “University of Dundee, Small-Polar-MMV Screening Library” (2021), ChEMBL document CHEMBL3988442.

Values are the deposited “Percent Effect”, in %.
How 0% and 100% were set is not recorded. Most values in the screen are low, and negative values occur.
This is an unselected part of the compounds tested.

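Whole-cell assay for inhibitors of Mycobacterium tuberculosis growth, labelled Cornell in the record; the read-out is not stated. The concentration is filed as 10 mM, unlikely as a test dose, so the dose is not known. The record gives no direction; compounds strong in two other growth screens of this library score well above the rest, so higher reads as stronger inhibition. About 53,000 compounds were tested under these conditions; 1.7% (about 900) showed 50% or more at least once.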

SMILES	percent effect
COc1cccc(N2CCN(C(=O)CO)CC2=O)c1	30.7
Cc1nc2sc(C(=O)N3CCNC(=O)C3)c(C)c2c(=O)[nH]1	38.94
O=C(CN1CC(c2nc(C3CC3)no2)C1)NCc1ccc(F)cc1.O=C(O)C(=O)O	28.53
CN1CC=C(c2noc(CCC(=O)N3CCc4ccccc4C3)n2)CC1	15.48
Cn1cc(CN(Cc2ccccn2)Cc2ccccc2Cl)cn1	9.224
O=C(Nc1nnn[nH]1)c1cc(-c2ccc(Br)s2)n[nH]1	39.49
Cc1nc(CN(C)c2nccc(N(C)C)n2)cs1	13.99
Cc1nc(C(Cc2ccsc2)NC(=O)CN2CCOCC2)sc1C (centres undefined)	26.71
COc1ccc(C2CC(=O)Nc3nc(N4CCOCC4)sc32)cc1 (centres undefined)	22.64
O=C1CCOC[C@]2(CN(Cc3ccccc3)C[C@H]2c2ccccc2)N1	21.93
CCc1nnc(C2Cc3ccccc3CN2Cc2ncc(Cl)n2C)o1 (centres undefined)	1.733
Cc1cc(C2CCCN(C(=O)c3ccc(Cl)o3)C2)n[nH]1 (centres undefined)	-8.321
CC(C)c1cc(C2CCN(C(=O)Cn3cncn3)CC2)[nH]n1	-45.45
COCC(=O)N1CC(c2ccnc(Nc3ccc(C)cn3)n2)C1	-23.84
CN(C)c1cc2c(nn1)CCN(C(=O)c1cc3c(s1)CCC3)C2	2.214
CCc1ccc(CN2CCC3(CC(C(=O)NCC(C)C)=NO3)C2)o1 (centres undefined)	17.23
Cc1cnn(CC2CCCN2Cc2noc(CC(C)C)n2)c1 (centres undefined)	11.44
CCCc1nc(CNC(=O)Cc2cc(C)no2)cs1	1.33
Cn1ccnc1CCNS(=O)(=O)Cc1cccc(C#N)c1	7.741
CCOC(=O)c1ccc(NC(=O)c2cc3c([nH]c2=O)CCCC3)cc1	-2.356
Cc1noc(C)c1CN1CCC2(CC1)CC(Oc1cccnc1)CO2.O=C(O)C(F)(F)F (centres undefined)	11.43
O=C(O)C(F)(F)F.O=C(O)C(F)(F)F.[H][C@@]12COC[C@H](NS(C)(=O)=O)[C@]1([H])CN(Cc1cccc(C)n1)C2	27.28
Cn1cnn(CC(=O)NCc2ccccc2F)c1=O	19.89
CC(C)c1nc(S(=O)(=O)Nc2ccnn2C2CCCC2)c[nH]1	106.1
Cc1ccccc1C(CC(=O)NCC(N)=O)c1ccccc1 (centres undefined)	11.77
C[C@H]1CN(Cc2cccc(F)c2)C[C@@]12CCN(CC(=O)N(C)C)C2=O.O=C(O)C(F)(F)F	0.5376
CC(C)(C)NC(=O)CN1CCN(C(=O)Nc2ccc(F)cc2F)CC1	7.226
Cc1cccc(NCCNc2ccc(C#N)cn2)n1	8.076
O=C(O)CC(O)(CC(=O)O)C(=O)O.c1ccc([C@@H]2CN(Cc3cccnc3)C[C@H]2c2cc[nH]n2)cc1	51.47
O=C(CCCNC(=O)NCC1CCCO1)Nc1ccc(Cl)cc1 (centres undefined)	9.109
CCN1CCc2onc(CNc3ncccn3)c2C1	-31.13
CN(CC1CCN(c2ccccc2)C1)c1ccc(Cn2ccnc2)cn1 (centres undefined)	22.12
[H][C@@]12CS(=O)(=O)C[C@]1([H])N(C(=O)c1cc(C(C)C)no1)CCN2C(C)=O	20.72
CN(CCc1cnn(C)c1)C(=O)CN1C(=O)OC[C@@H]1c1ccccc1	9.008
Cc1ccc2c(n1)N(CCN(C)C)CCN(C(=O)c1cccs1)C2.O=C(O)C(F)(F)F.O=C(O)C(F)(F)F	5.253
NC(=O)NC1CCN(Cc2ccccc2OCC(F)(F)F)CC1	-7.413
CC(C)c1cnc(CN2C(=O)CC3(CCSC3)C2=O)o1 (centres undefined)	-15.8
O=C(c1ccccn1)N1CCC2(CC1)COC(COc1cccnc1)C2 (centres undefined)	6.899
CC(COc1ccccc1)NS(C)(=O)=O (centres undefined)	-2.863
O=C(O)c1cnc(N2CC[C@H](N3CCOCC3)[C@H](CCCO)C2)c(Cl)c1	-4.407
CC(C#N)CN(C)C(=O)CCNC(=O)C(C)(C)C (centres undefined)	-4.649
CNS(=O)(=O)CCNc1cc(C)nc2cc(C)nn12	-9.043
CC(NC1CCN(CCc2ccncc2)CC1)c1cnn(C(C)C)c1 (centres undefined)	-8.141
COc1cccc(C2CCN(c3ccc4cc[nH]c4n3)C2)c1OC (centres undefined)	17.78
O=C(O)C(F)(F)F.O=C(O)C(F)(F)F.[H][C@@]12CCN(Cc3ccsc3)C[C@]1([H])[C@@H](CNc1ncccn1)OC2	16.88
O=C(NC[C@H]1OC[C@@H](NCc2ccccn2)[C@@H]1O)N1CCOCC1	7.606
CC1CCCN(Cc2c(C3CC3)[nH]c3ncccc23)C1 (centres undefined)	16.15
O=C(O)c1ccccc1-c1ccc(CNC(=O)C2CCOCC2)cc1	-11.43
Cc1cc(C)n2c(CCCNS(=O)(=O)c3ccc(F)cc3)nnc2n1	12.72
[H][C@@]12CCCO[C@]1([H])[C@H](N(C)Cc1cccnc1)CN2Cc1ccccn1	51.65
[H][C@]12CN(S(=O)(=O)c3ccc(C(=O)NCc4ccc(C)o4)cc3)[C@]([H])(CN1)C2	9.753
O=C(O)C(F)(F)F.O=C(O)C(F)(F)F.[H][C@@]12CN(CC3CCOCC3)C[C@]1([H])OCCN2c1ncccn1	8.071
O=C(Cc1n[nH]c2ccccc12)N1CCC(Nc2cccnn2)CC1	6.019
Cn1cc(C2CCCN2C(=O)c2cnc(-c3ccccn3)s2)cn1 (centres undefined)	9.085
CSc1ccccc1NC(=O)C1CN(C(=O)c2ccc3c(c2)OCO3)C1	18.44
CN1CCN(c2ccccc2NC(=O)NCCc2ccccc2)CC1	-15.35
O=C(O)C(F)(F)F.[H][C@@]12COC[C@]1(CNS(=O)(=O)CC)CN(Cc1ccsc1)C2	-3.035
O=C(O)C(F)(F)F.O=C(O)C(F)(F)F.O=C(O)C(F)(F)F.[H][C@@]12COC[C@]1([H])[C@H](OCc1ccccn1)CN2Cc1cccnc1	5.914
O=C(NCC1CCOC1)c1cc(-c2ccc(Cl)cc2)n[nH]1 (centres undefined)	-7.527
COc1cc(-c2nc(N)n[nH]2)cc(OC)c1OC	-8.659
CCC(CO)NCc1ccc(-c2ccccc2F)o1 (centres undefined)	21.91
CC(CN(C)C)Nc1nc(O)cc(Cc2ccccc2F)n1 (centres undefined)	47.34
O=C(O)C(F)(F)F.[H][C@@]12C[C@H](C(=O)NC)CN(CCOc3ccc(Cl)cc3)[C@]1([H])CCO2	-24.37
Cc1cccc2c1nc1n2[C@@H](CNC(=O)c2cnccn2)COC1	-38.94
Cc1cc(C(=O)N2CCc3nc4sc(C)cc4c(=O)n3CC2)on1	-24.26
O=C(NCc1csc(Cc2ccccc2)n1)C1NCCc2[nH]cnc21 (centres undefined)	-9.441
COc1cccc(CCNC(=O)c2ccc(=O)n(C)c2)c1	-6.657
Cc1cc(C)n(-c2cccc(C(=O)Nc3n[nH]c(C4CCCO4)n3)c2)n1 (centres undefined)	34.85
N#Cc1ccc(OC2CCN(C(=O)c3cncc(Br)c3)CC2)nc1	-8.739
CN(Cc1cscn1)C1CCCN(Cc2noc(C3CC3)n2)C1 (centres undefined)	-13.84
CC1=Nc2c(c(=O)[nH]n2C(C)C)C(c2ccc3c(c2)OCCO3)S1 (centres undefined)	-27.54
[H][C@]12CCN(C(=O)c3cc[nH]n3)CC[C@@]1([H])S(=O)(=O)N(Cc1cccnc1)C2	10.07
CC1c2ncc(COCC3CC3)n2CCN1S(=O)(=O)N(C)C (centres undefined)	14.89
O=C(CS(=O)(=O)C1CCCC1)NC1CCc2nccn2C1 (centres undefined)	-28.1
O=C(NCc1cccnc1N1CCCCC1)c1ccc2c(c1)OCO2	11.61
CCN1CCN(c2ccc(F)cc2C(C)NCc2noc(C)n2)CC1 (centres undefined)	-6.398
O=C(O)C(F)(F)F.[H][C@@]12CCN(C(=O)COCC)C[C@]1(COc1ncccc1F)CCO2	5.472
CC(C)c1csc(C(=O)N2CCCC(Cn3cc(CO)nn3)C2)n1 (centres undefined)	2.331
CN(Cc1nnc2ccccn12)C(=O)CCNC(=O)C(C)(C)C	-30.16
Cc1[nH]c(=O)sc1S(=O)(=O)N1CCCC1C(=O)NC1CC1 (centres undefined)	8.278
COCc1cccc(CNC(=O)c2c(C)noc2C(C)C)c1	-23.34
CCOc1cc(CNCCCn2ccnc2)cc(Cl)c1OC	-23.5
Cc1cccc(Cc2nc3c([nH]2)CCCNC3=O)c1	5.116
CCOc1ccc(Cl)cc1C(C(=O)O)N1CCC(CO)CC1 (centres undefined)	-33.26

Repeated from the top, 6 entries:

SMILES,percent effect
COc1cccc(N2CCN(C(=O)CO)CC2=O)c1,30.7
Cc1nc2sc(C(=O)N3CCNC(=O)C3)c(C)c2c(=O)[nH]1,38.94
O=C(CN1CC(c2nc(C3CC3)no2)C1)NCc1ccc(F)cc1.O=C(O)C(=O)O,28.53
CN1CC=C(c2noc(CCC(=O)N3CCc4ccccc4C3)n2)CC1,15.48
Cn1cc(CN(Cc2ccccn2)Cc2ccccc2Cl)cn1,9.224
O=C(Nc1nnn[nH]1)c1cc(-c2ccc(Br)s2)n[nH]1,39.49